Source: US20260139030A1
Results are given in words; binding and its absence hold for the method and conditions named. Binding can be weak; no strength is given. Sequences can lack the tags named with a protein. Blank lines part the entries; values can stand above or below the binder they belong to.

What was measured:
Galectin-9 [1] = experiment: MSD ELISA (legend of FIG. 5H)
Galectin-9 [2] = experiment: MSD ELISA: Galectin-9 coated, protein titrated, SULFO-TAG anti-mouse antibody detection (FIG. 5H)
[3] = target: hyaluronan binding protein 1 (HABP1); experiment: MSD ELISA (legend of FIG. 5L)
[4] = target: Inter-α-inhibitor heavy chain 4 (ITIH4); experiment: MSD ELISA: ITIH4 coated, protein titrated, SULFO-TAG anti-mouse antibody detection (FIG. 5K)
[5] = target: hyaluronan binding protein 1 (HABP1); experiment: MSD ELISA: HABP1 coated, protein titrated, SULFO-TAG anti-mouse antibody detection (FIG. 5L)
[6] = target: Inter-α-inhibitor heavy chain 4 (ITIH4); experiment: MSD ELISA (legend of FIG. 5K)
[7] = target: carcinoembryonic antigen-related cell adhesion molecule 1 (CEACAM1); experiment: MSD ELISA: CEACAM1 coated, protein titrated, SULFO-TAG anti-mouse antibody detection (FIG. 5M)
[8] = target: carcinoembryonic antigen-related cell adhesion molecule 1 (CEACAM1); experiment: MSD ELISA (legend of FIG. 5M)

binding (Galectin-9 [1]): binds | binding (Galectin-9 [2]): binds
B1: mouse TNFR2-Fc-Langerin chimeric protein (Fc fusion)
chain: VPAQVVLTPYKPEPGYECQISQEYYDRKAQMCCAKCPPGQYVKHFCNKTSDTVCADCEASMYTQVWNQFRTCLSCSSSCTTDQVEIRACTKQQNRVCACEAGRYCALKTHSGSCRQCMRLSKCGPGFGVASSRAPNGNVLCKACAPGTFSDTTSSTDVCRPHRICSILAIPGNASTDAVCAPESPTLSAIPRTLYVSQPEPTRSQPLDQEPGPSQTPSILTSLGSTPIIEQSTKGGVPRDCGCKPCICTVPEVSSVFIFPPKPKDVLTITLTPKVTCVVVDISKDDPEVQFSWFVDDVEVHTAQTQPREEQFNSTFRSVSELPIMHQDWLNGKEFKCRVNSAAFPAPIEKTISKTKGRPKAPQVYTIPPPKEQMAKDKVSLTCMITDFFPEDITVEWQWNGQPAENYKNTQPIMDTDGSYFVYSKLNVQKSNWEAGNTFTCSVLHEGLHNHHTEKSLSHSPGKIEGRMDQAVFYPRLMGKILDVKSDAQMLKGRVDNISTLGSDLKTERGRVDDAEVQMQIVNTTLKRVRSQILSLETSMKIANDQLQILTMSWGEVDSLSAKIPELKRDLDKASALNTKVQGLQNSLENVNKLLKQQSDILEMVARGWKYFSGNFYYFSRTPKTWYSAEQFCISRKAHLTSVSSESEQKFLYKAADGIPHWIGLTKAGSEGDWYWVDQTSFNKEQSRRFWIPGEPNNAGNNEHCANIRVSALKCWNDGPCDNTFLFICKRPYVQTTE

binding (Galectin-9 [1]): binds | binding (Galectin-9 [2]): binds
B2: mouse TNFR2-Fc-Clec7a chimeric protein (Fc fusion)
chain: VPAQVVLTPYKPEPGYECQISQEYYDRKAQMCCAKCPPGQYVKHFCNKTSDTVCADCEASMYTQVWNQFRTCLSCSSSCTTDQVEIRACTKQQNRVCACEAGRYCALKTHSGSCRQCMRLSKCGPGFGVASSRAPNGNVLCKACAPGTFSDTTSSTDVCRPHRICSILAIPGNASTDAVCAPESPTLSAIPRTLYVSQPEPTRSQPLDQEPGPSQTPSILTSLGSTPIIEQSTKGGVPRDCGCKPCICTVPEVSSVFIFPPKPKDVLTITLTPKVTCVVVDISKDDPEVQFSWFVDDVEVHTAQTQPREEQFNSTFRSVSELPIMHQDWLNGKEFKCRVNSAAFPAPIEKTISKTKGRPKAPQVYTIPPPKEQMAKDKVSLTCMITDFFPEDITVEWQWNGQPAENYKNTQPIMDTDGSYFVYSKLNVQKSNWEAGNTFTCSVLHEGLHNHHTEKSLSHSPGKIEGRMDGHNSGRNPEEKDNFLSRNKENHKPTESSLDEKVAPSKASQTTGGFSQPCLPNWIMHGKSCYLFSFSGNSWYGSKRHCSQLGAHLLKIDNSKEFEFIESQTSSHRINAFWIGLSRNQSEGPWFWEDGSAFFPNSFQVRNTAPQESLLHNCVWIHGSEVYNQICNTSSYSICEKEL

binding [3]: binds | binding [4]: binds | binding [5]: binds | binding [6]: binds | binding (Galectin-9 [1]): binds | binding [7]: binds | binding [8]: binds | binding (Galectin-9 [2]): binds
B3: mouse TNFR2-Fc-DC-SIGN chimeric protein (Fc fusion)
chain: VPAQVVLTPYKPEPGYECQISQEYYDRKAQMCCAKCPPGQYVKHFCNKTSDTVCADCEASMYTQVWNQFRTCLSCSSSCTTDQVEIRACTKQQNRVCACEAGRYCALKTHSGSCRQCMRLSKCGPGFGVASSRAPNGNVLCKACAPGTFSDTTSSTDVCRPHRICSILAIPGNASTDAVCAPESPTLSAIPRTLYVSQPEPTRSQPLDQEPGPSQTPSILTSLGSTPIIEQSTKGGVPRDCGCKPCICTVPEVSSVFIFPPKPKDVLTITLTPKVTCVVVDISKDDPEVQFSWFVDDVEVHTAQTQPREEQFNSTFRSVSELPIMHQDWLNGKEFKCRVNSAAFPAPIEKTISKTKGRPKAPQVYTIPPPKEQMAKDKVSLTCMITDFFPEDITVEWQWNGQPAENYKNTQPIMDTDGSYFVYSKLNVQKSNWEAGNTFTCSVLHEGLHNHHTEKSLSHSPGKIEGRMDVKVYKIPSSQEENNQMNVYQELTQLKAGVDRLCRSCPWDWTHFQGSCYFFSVAQKSWNDSATACHNVGAQLVVIKSDEEQNFLQQTSKKRGYTWMGLIDMSKESTWYWVDGSPLTLSFMKYWSKGEPNNLGEEDCAEFRDDGWNDTKCTNKKFWICKKLSTSCPSK
